From article PMC7819943, “Rice protein-binding microarrays: a tool to detect cis-acting elements near promoter regions in rice” come the findings set out here.

The chains behind the UniProt entries cited, without tags or fusion partners.
UniProt Q0JBA9, entry or part of it: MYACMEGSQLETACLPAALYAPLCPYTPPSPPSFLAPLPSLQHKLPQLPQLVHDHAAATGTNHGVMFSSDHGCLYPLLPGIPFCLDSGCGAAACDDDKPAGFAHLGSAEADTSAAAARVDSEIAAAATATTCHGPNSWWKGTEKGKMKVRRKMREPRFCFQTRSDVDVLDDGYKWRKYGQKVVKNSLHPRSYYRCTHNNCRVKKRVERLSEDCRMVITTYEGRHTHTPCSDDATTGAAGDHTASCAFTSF

The other results are listed elsewhere or left out.

The test deals with OsWRKY34 (Oryza sativa, UniProt Q0JBA9 1-250). The test can be described thus: protein-binding microarray (RPBM); PBS, 2% BSA, 51.3 ng/ul salmon testes DNA, 50 uM zinc acetate, 200 nM TF, 25 C, 1 h; high values mean tight binding. The conditions noted are these: protein: recombinant; tags: N-terminal polyhistidine and DsRed monomer fusion (pET32a); label: CyDye5-dUTP incorporated in the synthesized complementary strand; 3' TTTTT single-stranded linker to array surface; dsDNA, one strand shown. The method, boiled down:
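A custom Agilent array was converted to double-stranded form by primer extension with Cy5-dUTP and blocked with 2% BSA. Protein at 200 nM in PBS with 2% BSA, salmon testes DNA and 50 µM zinc acetate was applied for 1 h at 25 °C, followed by washing. The proteins were polyhistidine–DsRed N-terminal fusions of transcription factors, expressed in E. coli BL21-CodonPlus and Ni–NTA-purified. The binding signal is per-feature fluorescence intensity (arbitrary units) from an Axon 4000B scanner.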
On to “CCTGCGACTGCGACTTCTTCCTCTGCCTTCTGCTCTCTGCCGGAGTCACCTAGTGCAG”, for which the binding signal was 9660 fluorescence intensity (a.u.).
Next, “AGGGGAAATTTTTTTGCTTTGCGCGTGGGAGAGAGAAGGACGGAGTCACCTAGTGCAG”: 9360 fluorescence intensity (a.u.); “GGCTTGACCAACCACCGCGCGCGCCGCCGTCTTTCGCCGACGGAGTCACCTAGTGCAG”: 10400 fluorescence intensity (a.u.); “GCCGCGCCCCATCCGGCCATCCGCCACCTCTCCGCCGCGCCGGAGTCACCTAGTGCAG”: 9150 fluorescence intensity (a.u.).
Take “AAGGATAAGGGGTTTGATTAGAAAAAATTGATCTATAAGTCGGAGTCACCTAGTGCAG”: the binding signal was 8640 fluorescence intensity (a.u.).
Next, “GACGCTCTTGTCCCGGTTATGATTTGCACCTTTTTCTTTTCGGAGTCACCTAGTGCAG”: 9120 fluorescence intensity (a.u.).
Next, “GGGAGTCGTTTTTGTTCTGTGTATGATATTTATGCTTTTCCGGAGTCACCTAGTGCAG”: 13300 fluorescence intensity (a.u.); “CTGCTCATCGTCGCTTCTTCCTTGATCAGCCATCTCTATACGGAGTCACCTAGTGCAG”: 8430 fluorescence intensity (a.u.); “ATGACTATTACTATGTTCCTGACATATTGCACACCCTAGACGGAGTCACCTAGTGCAG”: 8270 fluorescence intensity (a.u.).
As for “CTAAATTGTATTTCTATATGGACTTTGCTTTTTCTTTTTCCGGAGTCACCTAGTGCAG”, the binding signal was 10900 fluorescence intensity (a.u.).
Regarding “TGACGTCACTCAGGCAGTCAACTATCGTCACTCTACCACTCGGAGTCACCTAGTGCAG”, the binding signal was 8540 fluorescence intensity (a.u.).
For the sequence “AGGAGGGAGCCATGGGTGGGAGGGGAAGGAGAGATGCGGACGGAGTCACCTAGTGCAG”, the binding signal is 9440 fluorescence intensity (a.u.).
Next, “TTCGTCAATGTGCCATCCATCCAATGTATGCAACTGTCAACGGAGTCACCTAGTGCAG”: 8090 fluorescence intensity (a.u.).
Next, “GTTCACCACGCCGTCCCCGAAGTTTACAGTCTCCACCATGCGGAGTCACCTAGTGCAG”: 8100 fluorescence intensity (a.u.); “GTCTGCCACGGGTTCCTCGTCTCTTCCTCTCCATTTCTACCGGAGTCACCTAGTGCAG”: 9670 fluorescence intensity (a.u.); “CTGGAGTATTAGAATTCAGGCTTGGCTTCCAGTGTTCTGTCGGAGTCACCTAGTGCAG”: 9640 fluorescence intensity (a.u.).
The figure for “TTTTCAATTTTCTGGTTGAGTAGGGGTTCGGAATTTTCTTCGGAGTCACCTAGTGCAG” is 10600 fluorescence intensity (a.u.).
Take “ATAGGATTTTCCCAAAAGGTTAGAGTGGACGGGAACAAAACGGAGTCACCTAGTGCAG”: the binding signal is 10400 fluorescence intensity (a.u.).
For the sequence “AAAAAACATTTTCATTCTTCGCTTCAATTGTATAATACTACGGAGTCACCTAGTGCAG”, the binding signal was 8730 fluorescence intensity (a.u.).
The figure for “CATCGCGTGATTCCGTTTTGCGCCGCCTCGCCTTTTGGATCGGAGTCACCTAGTGCAG” is 11500 fluorescence intensity (a.u.).
For the sequence “TAGCTACCTAAGCTTAGCTCACATTCTTCTCGCTTTCTCACGGAGTCACCTAGTGCAG”, the binding signal was 12000 fluorescence intensity (a.u.).
As for “TCCATGCCATGCCATTCATCACTTTGATCCAATATTACCACGGAGTCACCTAGTGCAG”, the binding signal was 9520 fluorescence intensity (a.u.).
Next, “GTAGTTGCGTTTTCATATAATGGATATTATTTATTCATGTCGGAGTCACCTAGTGCAG”: 11700 fluorescence intensity (a.u.).
For “ATGTCCAGCCTTATGCTTTCACAACTAAGTCTCTGTTTGTCGGAGTCACCTAGTGCAG”, the binding signal is 8750 fluorescence intensity (a.u.).
Next, “TAATGGTATCTTGCAACTCATGTATATTTGTGATGGTATTCGGAGTCACCTAGTGCAG”: 11800 fluorescence intensity (a.u.); “TGGGGTTTGATTATTTGACATTTTGGTATATTTTCATCAACGGAGTCACCTAGTGCAG”: 12400 fluorescence intensity (a.u.); “GTTTGAATTCACACTGCACCATCTGATTACCCTTTCTCACCGGAGTCACCTAGTGCAG”: 10300 fluorescence intensity (a.u.).
The figure for “ACCTCCATTCTCTCTGCTTCCTCTTCCTCTCCGCGTAGAGCGGAGTCACCTAGTGCAG” is 9040 fluorescence intensity (a.u.).
The figure for “GTACACGCCACCTTCATCTATAGCCGCCGCATTTTACTACCGGAGTCACCTAGTGCAG” is 8460 fluorescence intensity (a.u.); for “TCGCGTGTGGAGGGGAGGAGTGTGTGGGATATCCGGAAGCCGGAGTCACCTAGTGCAG” it is 9860 fluorescence intensity (a.u.); for “AGGCCGCCCTTCACCGCAACGACGGCGGGCGCTCGCGCTCCGGAGTCACCTAGTGCAG” it is 15000 fluorescence intensity (a.u.).
As to “GGTGATCTTTGTATTCTTTTTCTGCAGCGAACATATAGCTCGGAGTCACCTAGTGCAG”, the binding signal was 16300 fluorescence intensity (a.u.).
The figure for “CTCGGGTTCCACCCACAACTTCATCTCCACATTGGCTGCCCGGAGTCACCTAGTGCAG” is 8120 fluorescence intensity (a.u.); for “TTCGTGGCGCCATATATTATGGTCTTTGTTTGGGCAGAACCGGAGTCACCTAGTGCAG” it is 8380 fluorescence intensity (a.u.); for “CCTGTCTATGTATGGGTAATGGGTGTACTATCTTTTCCATCGGAGTCACCTAGTGCAG” it is 10500 fluorescence intensity (a.u.).
The figure for “TATATATATATATATATATATATATATATATAAACCATGCCGGAGTCACCTAGTGCAG” is 10600 fluorescence intensity (a.u.).
Regarding “AAGTCCACAGACTTCACCGCCGCTGTTACCGCGATCCCGGCGGAGTCACCTAGTGCAG”, the binding signal is 10200 fluorescence intensity (a.u.).
Next, “TAAACACGTCATTGCTCAGGTATTCGGATATTATTTTTTTCGGAGTCACCTAGTGCAG”: 9730 fluorescence intensity (a.u.); “TGCTGCACGTCATCCGCCCCGAAGCCCAATCCCTTGGCCACGGAGTCACCTAGTGCAG”: 8770 fluorescence intensity (a.u.); “CGACCTCTCACGCATCAACCCACTTGTAAACCACCCCGTCCGGAGTCACCTAGTGCAG”: 8920 fluorescence intensity (a.u.).
Turning to “AAGTTGATGCTTTTGGACAGGGTTGACTTTACTTCTTTGGCGGAGTCACCTAGTGCAG”, the binding signal was 14000 fluorescence intensity (a.u.).
For “TTTCCACTGACACGCGCTAACAATTGCTACTATTTGCATGCGGAGTCACCTAGTGCAG”, the binding signal is 8420 fluorescence intensity (a.u.).
